PubChem BioAssay AID504764 | Drosophila RNAi Screening Center, 2011

- Test: 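Genes whose knock-down alters Notch-dependent transcription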 (primary screen)
- Cell system: Drosophila Kc167 cells
- Reagent: long dsRNA against Drosophila genes
- Time to read-out: about 5 days (4 days dsRNA, then 24 h after transfection)
- Treatment: transfection of constitutively active membrane-tethered Notch lacking the extracellular domain, read 24 h later
- Detection: 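Light from a Notch-responsive E(spl)m3 luciferase reporter under active Notch, with control-promoter and no-Notch reporter wells to normalise; raw counts from paired wells a and b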
- Direction: induced reporter light, run 1, well a and induced reporter light, run 1, well b: higher = more light from the Notch target reporter with active Notch; control promoter light, run 1, well a and control promoter light, run 1, well b: higher = more light from the viral control promoter (cell number, transfection, viability); uninduced reporter light, run 1, well a: higher = more light from the Notch target reporter without active Notch
- Call rule: 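Wells with low control signal or poorly matching duplicates excluded; duplicates averaged; per source plate, z beyond ±2 for induced/control log2 ratio or beyond ±1.8 for induced/uninduced marks a hit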
- Meaning of the calls: active = modifier hit (raised or lowered Notch signal); inactive = not a hit
In all, the deposit lists about 22,000 reagents; this is a random part of those that have a named target and a result. Of all reagents, 403 (1.9%) are marked active. 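Unnormalised raw counts per well; ratio z-scores behind the hit calls and whether each hit raises or lowers signal are not deposited.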 Names joined by + are all predicted targets of the reagent. Reagent sequences are not shown. Not given: the amount of reagent.

no.	gene	amplicon	induced reporter light, run 1, well a	induced reporter light, run 1, well b	control promoter light, run 1, well a	control promoter light, run 1, well b	uninduced reporter light, run 1, well a	Outcome
1	CysRS	DRSC05948	1.02e5	1.28e5	2.02e5	2.11e5	9310	inactive
2	MED4	DRSC11014	72345	63720	39365	14625	7740	inactive
3	Ino80	DRSC14760	1.24e5	1.32e5	1.69e5	1.77e5	8605	inactive
4	Ino80	DRSC15333	1.15e5	94170	1.50e5	1.50e5	8340	inactive
5	Ino80	DRSC15501	1.35e5	1.21e5	1.61e5	2.04e5	10220	inactive
6	gbb	DRSC04687	1.65e5	1.29e5	1.81e5	1.78e5	10975	active
7	eloF	DRSC15162	1.24e5	1.03e5	1.13e5	80205	5620	inactive
8	CG11069	DRSC14289	1.79e5	1.98e5	2.46e5	2.38e5	13475	inactive
9	CG33282	DRSC00422	1.70e5	1.45e5	1.75e5	1.56e5	9570	inactive
10	CG11566 (retired record) + stg1	DRSC20473	4835	6325	7635	8035	5530	inactive
11	CG11566 (retired record) + stg1	DRSC20481	99590	96640	1.11e5	1.37e5	9960	inactive
12	CG11566 (retired record) + stg1	DRSC20482	84080	84245	1.14e5	92235	10030	inactive
13	CG11566 (retired record) + stg1	DRSC20483	1.07e5	1.12e5	1.11e5	1.08e5	11160	inactive
14	CG14160	DRSC10161	1.59e5	1.58e5	1.80e5	1.83e5	9750	inactive
15	CG30020	DRSC06252	1.18e5	1.25e5	1.35e5	1.57e5	12875	inactive
16	CG30020	DRSC06730	1.81e5	1.50e5	2.19e5	1.98e5	15890	inactive
17	Qsox2	DRSC15287	1.75e5	2.07e5	2.52e5	2.71e5	15260	inactive
18	CG14860	DRSC14983	2.59e5	2.58e5	1.92e5	2.06e5	20765	inactive
19	Adss	DRSC14162	1.24e5	1.29e5	1.27e5	1.17e5	11885	inactive
20	Alp12	DRSC02515	50760	55990	62200	42175	2255	inactive
21	CG17234	DRSC00490	1.09e5	1.21e5	82010	54085	8392	inactive
22	CG4476	DRSC10424	1.12e5	1.17e5	1.33e5	1.08e5	7940	inactive
23	Fen1	DRSC07415	68020	92250	1.15e5	1.49e5	8385	inactive
24	CG13385	DRSC02259	1.56e5	1.78e5	87835	1.18e5	19370	inactive
25	CG31365	DRSC15610	2.22e5	1.93e5	1.78e5	2.02e5	17040	inactive
26	CG11858	DRSC14412	1.63e5	1.84e5	2.54e5	2.62e5	15075	inactive
27	CG6550	DRSC07001	96595	1.10e5	1.87e5	2.37e5	11495	inactive
28	CG13203	DRSC06327	1.31e5	1.33e5	1.41e5	1.76e5	12000	inactive
29	Pstk + Tim9b	DRSC19504	1.46e5	1.30e5	1.17e5	94720	11920	inactive
30	Pstk + Tim9b	DRSC20292	59915	86415	71785	1.03e5	8795	inactive
31	dnt	DRSC03522	1.79e5	1.83e5	1.81e5	1.94e5	13645	inactive
32	Sox15	DRSC07555	94840	88655	1.21e5	1.26e5	8785	inactive
33	tefu	DRSC16060	2.28e5	1.82e5	2.03e5	1.92e5	15825	inactive
34	Vps36	DRSC09785	2.00e5	1.74e5	2.90e5	2.36e5	9935	inactive
35	Mys45A	DRSC07067	97330	1.08e5	1.10e5	1.08e5	9082	inactive
36	CG8028	DRSC20075	80950	1.10e5	1.28e5	1.22e5	11500	inactive
37	Cirl	DRSC21942						inactive
38	Cad88C	DRSC15486	2.66e5	2.84e5	2.51e5	2.51e5	20050	inactive
39	CG3038	DRSC18618	1.14e5	1.34e5	1.91e5	2.09e5	9738	inactive
40	CG2852	DRSC04321	1.60e5	1.33e5	1.56e5	1.40e5	11945	inactive
41	Eig71Ej	DRSC11157	1.56e5	1.40e5	1.76e5	1.51e5	6025	inactive
42	Cyp6d4	DRSC16633	1.81e5	1.96e5	2.06e5	2.13e5	11915	inactive
43	CG42268	DRSC10171	1.44e5	1.19e5	1.70e5	1.65e5	7690	inactive
44	CG42268	DRSC10702	1.60e5	1.46e5	2.24e5	1.63e5	7515	inactive
45	Adar	DRSC17725	1.07e5	1.18e5	1.54e5	1.77e5	6505	inactive
46	eEFSec	DRSC04571	49390	55305	39290	32290	3005	inactive
47	Rev1	DRSC08264	1.12e5	94340	1.76e5	2.04e5	7882	inactive
48	Cdc16	DRSC16920	1.07e5	1.18e5	1.29e5	1.37e5	9585	inactive
49	CG12391	DRSC06147	1.80e5	1.97e5	1.60e5	1.55e5	13415	inactive
50	CG15356	DRSC00386	1.29e5	1.08e5	1.20e5	87190	9365	inactive
